Results from publication PMC6797515, “Effects of Bakuchiol on chondrocyte proliferation via the PI3K‐Akt and ERK1/2 pathways mediated by the estrogen receptor for promotion of the regeneration of knee articular cartilage defects” (Cell Proliferation, 2019).

Tested on: chondrocytes
Experiment: RNA-sequencing for differentially expressed genes
Format: cell-based, rat
Settings: 10 µmol/L BAK vs control

C=C[C@@](C)(/C=C/c1ccc(O)cc1)CCC=C(C)C [BAK, bakuchiol]
number of down-regulated differentially expressed genes: 32 genes | number of up-regulated differentially expressed genes: 75 genes
